Entries after “also recorded” stand apart in the source; their conditions may differ. At least one structure is not confirmed: it was looked up by name or label, or the drawing left a doubt.
Legend:
[1] = tested on: S6 Ribosomal Protein (S235/236) in SH-SY5Y cells; experiment: S6 Ribosomal Protein (S235/236) phosphorylation in SH-SY5Y cells; format: cell-based, human; conditions: rapamycin pre-treatment
Experimental: (§1) SH-SY5Y cells were obtained from ATCC (Cat# CRL-2266, Manassas, Va.) and were cultured in DMEM and 10% FBS up to passage 10. For differentiation of SH-SY5Y cells into a neuronal phenotype, cells were first plated in DMEEM+10% FBS for 24 hrs before exchanging media in DMEM+1% FBS 10 μM retinoic acid. Differentiation was performed for 3 days before experimentation. Hippocampal neurons were prepared according to the protocol by Beaudoin et al. (Nature Protocols 2012; 7(9):1741-1754) with minor modifications. In brief, after trypsin digestion of hippocampi isolated from P1 mouse pups single cell suspensions was created by trituration and plated onto Biocoat™ poly-D-lysine coated 12-well plates (Cat#354470, BD Biosciences, San Jose, Calif.). […]
Pathscan Antibody™ array kits were purchased from Cell Signaling Technologies (Danvers, Mass.). PathScan® RTK signaling antibody array kit (Fluorescent Readout, Cat#7949) and PathScan™ Akt signaling antibody array kit (Fluorescent Readout, Cat#9700) were performed as per manufacturer's instructions. Imaging was performed on a LI-COR Odyssey™ infrared scanner and pixel densities measured by in house LI-COR Image™ suite software. […]
Lysates was analyzed in conjuncture with the LI-COR Odyssey™ infra-red imaging system. […] After further wash steps images were obtained using a LI-COR™ Odyssey scanner and quantified using LI-COR™ Image Studio software. […]

[2] = tested on: β3-tubulin / dendritic branches in the molecular layer of the dentate gyrus; experiment: β3-tubulin western blot and staining of ipsilateral hippocampus 7 days post-TBI; format: in vivo, mouse; conditions: inhibitor 1 mg/kg i.p. 30 minutes prior to each IV TIMP3
From the text: (§2) The mouse controlled cortical impact (CCI) injury model was used as previously described. In brief, mice were anesthetized with 5% isoflurane and 1:1 O2:N2 mixture. Animals were mounted on a stereotaxic frame and were secured by ear bars and an incisor bar. Anesthesia was maintained with 2.0% isoflurane and 1:1 O2:N2 mixture. A 5-mm-diameter craniotomy was made midway between bregma and lambda on the right side, with the medial edge of the craniotomy 1 mm lateral to midline. Injury was produced using a magnetic impactor mounted at an angle of 110° from the vertical plane. A single impact at a velocity of 4+/−0.2 m/s was used inflict a moderate to severe injury (1.2-1.3 mm impact depth). After injury, the incision was closed. Sham animals underwent identical surgeries except for impact injury. Core body temperature was monitored using a rectal thermometer and maintained at 36.8° C.-37.2° C. with a heating pad throughout the procedure. For treatments, TIMP3 (60.0 μg/kg) or vehicle control (PBS) administration was performed at 2, 24, and 48 hrs after injury via tail vein injections in a total volume of 125 μl. Animal research was performed with approval of the Institutional Animal Care and Use Committee at ISIS Services LLC (San Carlos, Calif., USA). […]

SH-SY5Y cells [3] = experiment: Hypoxia and MTT assay; format: cell-based, human; conditions: 1 nM rapamycin pre-treatment with TIMP3; hypoxia paradigm
Experimental: MTT Cell Viability & Proliferation Assay™ was purchased from ScienCell, (Cat#8028. Carlsbad, Calif.) and performed with modifications. In brief, 2×10^5 SH-SY5Y cells were plated per well of a 12 well plate and differentiated for 2 days. Pre-treatments were conducted 1 hr prior to initiation of hypoxia. Control cells underwent media exchange. For hypoxia, cultures were placed in a hypoxia incubator chamber (Cat#27310. StemCell technologies, Vancouver, BC) and purged of regular air using nitrogen gas for 5 mins at a flow rate of 20 L/min, after which both inlet and outlet values were closed and the chamber was placed inside a regular tissue culture incubator. The chamber was re-gassed after one hour again for 5 mins at a flow rate of 20 L/min. After the hypoxia period, tissue culture plates were removed from the chamber and placed back into a regular tissue culture incubator for 18 hrs. At the time of assay 50 μl of MTT Solution was added to each well and incubated for 1 hr at 37° C. After incubation, add 250 μl of MTT solubilization buffer was added and […] of each test sample was transferred to a well of a 96 well plate. The absorbance was then read using a Polarstar plate reader (BMG Labtech, Cary, N.C.) at a wavelength at 570 nm. Background subtraction was carried out with values from an average of 4 wells of solubilization buffer alone.

[4] = tested on: DCX+ve neurons in the subgranule zone of the dentate gyrus; conditions: inhibitor 1 mg/kg i.p. 30 minutes prior to each IV TIMP3; 7 days post-TBI; ipsilateral
From the text: as §2

SH-SY5Y cells [5] = experiment: Colorimetric neurite outgrowth assay; format: cell-based, human
Experimental: Neurite Outgrowth Assay Kit™ 3 μm (Cat# NS220) and AXIS™ Axon Isolation Devices, 150 μm, Plasma Bonded chamber slides (Cat# AX15005PB) were purchased from (EMD Millipore, Billerica, Mass.). For neurite outgrowth assays SH-SY5Y cells were initially differentiated for 24 hrs at a density of 4×10^5 cells per well of a 6-well plate. Cells were then dissociated using kit supplied dissociation buffer and 3×10^5 cells were replated onto transwell inserts. […] Assay was conducted per manufacturer's instructions.

hippocampal neurons = experiment: Sholl analysis of isolated hippocampal neurons; format: cell-based, mouse; conditions: 1 nM rapamycin, 72 hrs, with TIMP3
Experimental: as §1, with “Calif.). 2 pups were used per well and cell suspensions were incubated for 10 minutes per well for a total of 6 wells. The serial incubation allowed for variation in cell densities applicable to different experiments but also contributed to the reduction in non-neuronal cells.” for “Calif.).”
Sholl analysis on processed images of isolated hippocampal neurons was conducted using the Fiji derivation of Image J. (Hypertext Transfer Protocol://Fiji.sc.Fiji). […] After neurites had been traced the images were rendered as an analyzed skeleton and Sholl analysis was run on the image from the Analyze menu option.

[6] = tested on: phospho-AKT(Ser473) in SH-SY5Y cells; experiment: Akt (Ser473) phosphorylation in differentiated SH-SY5Y cells (antibody array, western blot, Phosflow); format: cell-based, human; conditions: rapamycin pre-treatment with TIMP3
Experimental: as §1, with “modifications.” for “modifications. In brief, after trypsin digestion of hippocampi isolated from P1 mouse pups single cell suspensions was created by trituration and plated onto Biocoat™ poly-D-lysine coated 12-well plates (Cat#354470, BD Biosciences, San Jose, Calif.).”
Pathscan Antibody™ array kits were purchased from Cell Signaling Technologies (Danvers, Mass.). PathScan® RTK signaling antibody array kit (Fluorescent Readout, Cat#7949) and PathScan™ Akt signaling antibody array kit (Fluorescent Readout, Cat#9700) were performed as per manufacturer's instructions. Imaging was performed on a LI-COR Odyssey™ infrared scanner and pixel densities measured by in house LI-COR Image™ suite software.
After experimentation, SH-SY5Y cells were detached from culture ware via trypsin digestion and rapidly mixed with an equal volume of BD cytofix fixation buffer (Cat#554655. BD Biosciences, San Jose, Calif.). […] After washing in BD stain buffer (Cat#554657. BD Biosciences, San Jose, Calif.) cells were counted and 1×10^6 cells were used antibody incubation. […]
Lysates was analyzed in conjuncture with the LI-COR Odyssey™ infra-red imaging system. […]

## CO[C@H]1C[C@@H]2CC[C@@H](C)[C@@](O)(O2)C(=O)C(=O)N2CCCC[C@H]2C(=O)O[C@H]([C@H](C)C[C@@H]2CC[C@@H](O)[C@H](OC)C2)CC(=O)[C@H](C)/C=C(\C)[C@@H](O)[C@@H](OC)C(=O)[C@H](C)C[C@H](C)/C=C/C=C/C=C/1C [rapamycin, Rapamycin, reference compound]
[1]
  S6RP phosphorylation with rapamycin: completely blocked S6RP phosphorylation
[2]
  neurites in the molecular layer (β3-tubulin staining), change from TBI+TIMP3: subverted the preservation/reinnervation of neurites
SH-SY5Y cells [3]
  viability / TIMP3 neuroprotection with rapamycin (MTT): did not affect viability; also recorded: mild but non-significant increase in neuroprotection
[4]
  DCX positive neuronal progenitor staining, change from TBI+TIMP3: significant increase in staining for DCX positive neuronal progenitors
SH-SY5Y cells [5]
  TIMP3-induced increase in neurite outgrowth with rapamycin co-treatment: completely abrogated
Hippocampal neurons
  effect on TIMP3-promoted neurite outgrowth (Sholl analysis): significantly inhibited the effects of TIMP3 on neurite outgrowth
[6]
  Akt (Ser473) phosphorylation with rapamycin, western blot: elevated level of phospho-Akt
